Data on two molecules can be found in paper PMC4534774.

No constants are given. Whether binding was seen depends on the method and setting. Binding seen in cells or lysates may run through a third protein. Some results given as binding are weak or reduced against the parent protein; the word gives no strength.

The target in test [1] is FLAG-tagged FBW7, Q969H0. Nature of the test: co-IP; anti-Flag (DYDDDK Tag Rabbit) pre-bound to protein A agarose, overnight immunoprecipitation from extracts of HT29 cells transfected with Flag-FBW7, with or without 1,25D; washes with 200 mM NaCl, 1% NP-40; Western blot for NF-κB1 and RELA; controls: control IgG and untransfected cells. The note with it: remark: other sources report otherwise. A general note: A western blot detects proteins with antibodies after separation by electrophoresis.

Test [2] deals with T1, vitamin D receptor (human (endogenous in HT29)) (UniProt P11473).
T1 sequence: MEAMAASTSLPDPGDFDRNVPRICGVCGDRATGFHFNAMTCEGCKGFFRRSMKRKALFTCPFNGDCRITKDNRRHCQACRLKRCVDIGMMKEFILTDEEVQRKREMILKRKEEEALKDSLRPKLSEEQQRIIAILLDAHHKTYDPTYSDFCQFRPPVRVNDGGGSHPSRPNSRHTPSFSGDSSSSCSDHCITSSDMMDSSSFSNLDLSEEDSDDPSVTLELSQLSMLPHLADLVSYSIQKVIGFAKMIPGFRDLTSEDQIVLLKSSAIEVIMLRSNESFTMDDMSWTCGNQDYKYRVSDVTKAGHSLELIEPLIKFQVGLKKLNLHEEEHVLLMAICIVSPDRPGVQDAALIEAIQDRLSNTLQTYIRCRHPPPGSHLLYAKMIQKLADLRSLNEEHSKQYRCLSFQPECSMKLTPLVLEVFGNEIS
The test is described as follows: co-IP; anti-VDR (D-6) pre-bound to protein A agarose, overnight immunoprecipitation from extracts of HT29 cells treated with vehicle or 1,25D (100 nM) for 24 h; lysis in 20 mM Tris pH 7.5, 100 mM NaCl, 0.5% NP-40; washes with 200 mM NaCl, 1% NP-40; Western blot for NF-κB subunits.

B1: NF-κB1 p105, P19838 1-968 (protein)
chain: MAEDDPYLGRPEQMFHLDPSLTHTIFNPEVFQPQMALPTDGPYLQILEQPKQRGFRFRYVCEGPSHGGLPGASSEKNKKSYPQVKICNYVGPAKVIVQLVTNGKNIHLHAHSLVGKHCEDGICTVTAGPKDMVVGFANLGILHVTKKKVFETLEARMTEACIRGYNPGLLVHPDLAYLQAEGGGDRQLGDREKELIRQAALQQTKEMDLSVVRLMFTAFLPDSTGSFTRRLEPVVSDAIYDSKAPNASNLKIVRMDRTAGCVTGGEEIYLLCDKVQKDDIQIRFYEEEENGGVWEGFGDFSPTDVHRQFAIVFKTPKYKDINITKPASVFVQLRRKSDLETSEPKPFLYYPEIKDKEEVQRKRQKLMPNFSDSFGGGSGAGAGGGGMFGSGGGGGGTGSTGPGYSFPHYGFPTYGGITFHPGTTKSNAGMKHGTMDTESKKDPEGCDKSDDKNTVNLFGKVIETTEQDQEPSEATVGNGEVTLTYATGTKEESAGVQDNLFLEKAMQLAKRHANALFDYAVTGDVKMLLAVQRHLTAVQDENGDSVLHLAIIHLHSQLVRDLLEVTSGLISDDIINMRNDLYQTPLHLAVITKQEDVVEDLLRAGADLSLLDRLGNSVLHLAAKEGHDKVLSILLKHKKAALLLDHPNGDGLNAIHLAMMSNSLPCLLLLVAAGADVNAQEQKSGRTALHLAVEHDNISLAGCLLLEGDAHVDSTTYDGTTPLHIAAGRGSTRLAALLKAAGADPLVENFEPLYDLDDSWENAGEDEGVVPGTTPLDMATSWQVFDILNGKPYEPEFTSDDLLAQGDMKQLAEDVKLQLYKLLEIPDPDKNWATLAQKLGLGILNNAFRLSPAPSKTLMDNYEVSGGTVRELVEALRQMGYTEAIEVIQAASSPVKTTSQAHSLPLSPASTRQQIDELRDSDSVCDSGVETSFRKLSFTESLTSGASLLTLNKMPHDYGQEGPLEGKI
With B1, the binding result in test [1] is on record as “binds”.

B2: NF-κB2 p100 (protein, UniProt Q00653-1 1-900)
chain: MESCYNPGLDGIIEYDDFKLNSSIVEPKEPAPETADGPYLVIVEQPKQRGFRFRYGCEGPSHGGLPGASSEKGRKTYPTVKICNYEGPAKIEVDLVTHSDPPRAHAHSLVGKQCSELGICAVSVGPKDMTAQFNNLGVLHVTKKNMMGTMIQKLQRQRLRSRPQGLTEAEQRELEQEAKELKKVMDLSIVRLRFSAFLRASDGSFSLPLKPVISQPIHDSKSPGASNLKISRMDKTAGSVRGGDEVYLLCDKVQKDDIEVRFYEDDENGWQAFGDFSPTDVHKQYAIVFRTPPYHKMKIERPVTVFLQLKRKRGGDVSDSKQFTYYPLVEDKEEVQRKRRKALPTFSQPFGGGSHMGGGSGGAAGGYGGAGGGGSLGFFPSSLAYSPYQSGAGPMGCYPGGGGGAQMAATVPSRDSGEEAAEPSAPSRTPQCEPQAPEMLQRAREYNARLFGLAQRSARALLDYGVTADARALLAGQRHLLTAQDENGDTPLHLAIIHGQTSVIEQIVYVIHHAQDLGVVNLTNHLHQTPLHLAVITGQTSVVSFLLRVGADPALLDRHGDSAMHLALRAGAGAPELLRALLQSGAPAVPQLLHMPDFEGLYPVHLAVRARSPECLDLLVDSGAEVEATERQGGRTALHLATEMEELGLVTHLVTKLRANVNARTFAGNTPLHLAAGLGYPTLTRLLLKAGADIHAENEEPLCPLPSPPTSDSDSDSEGPEKDTRSSFRGHTPLDLTCSTKVKTLLLNAAQNTMEPPLTPPSPAGPGLSLGDTALQNLEQLLDGPEAQGSWAELAERLGLRSLVDTYRQTTSPSGSLLRSYELAGGDLAGLLEALSDMGLEEGVRLLRGPETRDKLPSTAEVKEDSAYGSQSVEQEAEKLGPPPEPPGGLCHGHPQPQVH
In the case of B2, the binding entry in test [2] is on record as “binds”.
